Our source for the z-score values is PubChem BioAssay AID1508600 (Functional Genomics Laboratory (NCATS/FGL), 2020).

Screen size: about 53,000 sequences; about 3,700 (7%) were called active.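 The calls were made as follows: active = gene knockdowns whose robust z-score for IL-1 alpha signal is at least 2 or at most -2, so actives lie on both sides; inactive = the rest.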 The list shows a part of the results.

This assay is described as follows: Components of the Cytosolic LPS Sensing Pathway: Gene Identification via Genome-wide siRNA Screen.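 Also: robust z of the log signal after scaling to non-targeting control siRNA wells of the plate.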 Conditions: RAW264.7 macrophages, IL-1a HTRF, actives lie on both sides, screened at 100 nM (by protocol), cells primed 5 h with Pam3CSK4 first. An outline of the steps: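 Using IL-1a HTRF as read-out, the screen measured release from RAW264.7 cells after 48h siRNA knockdown (100 nM), 5 h Pam3CSK4 priming and 24 h cytosolic LipidA. Values were expressed relative to negative-control wells as robust z-scores.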
Regarding GGUCCUUGGUAAUCAAAUATT against Zc3h7a, the z-score was inactive: -0.554.

In the case of GGAAAAGGGUAAACAAACATT against Car13, the z-score was inactive: 0.978.

Take GGGCUGGAAUCUAGGAAGUTT against Ccr10: the z-score was active: 2.68.

On to GGAGGUCAGAAGGUGUGUUTT against Rad52, for which the z-score was inactive: -1.43.

Turning to CCCAAACACCAACCAACUGTT against Unc93a, the z-score is inactive: 0.507.

GGAUGUCAAAUCUGCUGUATT against Olfr229: the z-score was inactive: -1.48.

GCGUGAUUGACAACUGGUUTT against Cphx1: the z-score was inactive: 0.236.

In the case of GCAAGCCCAUUGAUCAGAGTT against Rhno1, the z-score was inactive: -1.77.

For GCAAGUAUACACCUCUCAATT against Slc6a12, the z-score was inactive: 0.884.

Turning to GGACCUUAAAGAAACAUUUTT against Iws1, the z-score was inactive: 1.67.

As for GGUAGUCAUCAGCUACUUCTT against Slc31a1, the z-score is inactive: -0.877.

Regarding “GGGAAAAGAAGUUUCAAGUTT against A430072C10Rik”, the z-score is inactive: -0.309.

As for GCACAGCUCUACAUAAUUUTT against Olfr312, the z-score is inactive: -0.817.

Turning to GGGCCUUAAAUUCCUAACCTT against Spinkl, the z-score is inactive: -0.546.

Take GCUCUUCUUCUUCUCCUUGTT against Olfr1411: the z-score was inactive: -0.86.

For GGAUAACCACGACAAAAUATT against Ttc7, the z-score was inactive: -0.853.

Regarding GGUUCUGGUAUAAGUUAACTT against Gabrg3, the z-score was inactive: 0.292.

On to GCGGGCCAAGGUAGAAUACTT against Kdm1a, for which the z-score was inactive: 0.442.

GCCAGUGGUAGCGAUAUGATT against Zscan4c: the z-score was inactive: -0.263.

Regarding GCCCUCGGAUAGAAUGGAUTT against Ccdc32, the z-score was inactive: -1.24.

As to GUGUAAGAUCUGACACUUUTT against Krtap5-2, the z-score was inactive: 0.733.

As for GGUCUCCAUUUCUUUCUGCTT against Nmd3, the z-score was inactive: -0.952.

Take GGGAGGUUAAAAUUGGCUATT against Sertm1: the z-score is inactive: -1.

GGACAAUUACUCCAAAAUUTT against Tnfsf10: the z-score is inactive: 0.724.

Turning to GCACUACAAACAGUUCCGATT against Fat4, the z-score was inactive: 1.03.

On to GGCUGAGUGGCUCUAUAGUTT against Cep97, for which the z-score was inactive: -1.29.

Take GGUCCACUAAGAAGACAUATT against Fibcd1: the z-score was inactive: -0.488.

Turning to GGUCUUCCGAGAAGGUUAATT against Chst4, the z-score is inactive: 1.28.

Regarding GGAAAUGUCUUGUCACUAATT against Bzw1, the z-score is inactive: 0.896.

Consider CCAGGAAAUUCGUGCAUGATT against Sgsm2, for which the z-score is inactive: -0.307.

As to “GGAAAGAGGAAGAUAAAGUTT against 2310002L09Rik”, the z-score is inactive: -1.17.

As for GCCGAACUGUCAGUACUUCTT against Ccn3, the z-score is inactive: 0.0642.

Take GGAUGGGUCAAUGUUCUACTT against V1rb6: the z-score was inactive: 0.232.

On to GGUUGGAGCACUAGUGAGATT against Imp4, for which the z-score is inactive: 0.204.

Turning to GGGAUAAGUACUCUGCUAATT against Sorcs3, the z-score was inactive: -0.146.

In the case of GGGCUGUUUGGAAUAAUAATT against Gmppb, the z-score is inactive: -0.0465.

Turning to GCAUGUUGUCGACACAUGCTT against Bcl6, the z-score is active: 2.39.

With GGAAGAGAGCAGAAAGAAGTT against Trim35, the z-score was inactive: -0.135.

For GCCAGAAGAGCAGAAAGUUTT against Enpp5, the z-score was inactive: -1.11.

With GCACUACACCUCCAGUUCGTT against Gne, the z-score is inactive: 0.164.

Consider GGUCUGCCUUUGAAAAAAATT against Bckdha, for which the z-score is inactive: -0.475.

On to CGAGGAUUUCGAUUCCAUUTT against Mael, for which the z-score was inactive: 0.384.

As to CCUUGUUCCCGAAAUACCGTT against Krr1, the z-score was inactive: -0.471.

Turning to GGUACACGUCUUGUCUCUGTT against Spry2, the z-score is inactive: -0.367.

For the sequence GGGAAGGAUUAGCAUGUCGTT against Rida, the z-score is inactive: -1.33.

With GGAGAUCUACUUUCUCAACTT against Crtac1, the z-score is inactive: -0.071.

For the sequence GGGUGGUGUUUUAACCCUUTT against Mep1b, the z-score is inactive: -1.48.

As to GGAGCUUGUGAACACCUUCTT against Nudc, the z-score is inactive: 0.718.

Consider CGUGUACGACAUCUCCUAUTT against Rilpl2, for which the z-score is inactive: -1.84.

As to GGCUGUUUAUUGUAAUGGATT against Nek5, the z-score is inactive: 1.12.

Consider CCUCAAACCAUCAACAACCTT against Six3, for which the z-score is active: -2.04.

As for GCCUCGAUUGGCCACAUUUTT against Atp5l, the z-score is active: 4.61.

As for GGAACACAAUAGUACAUACTT against Slc2a4, the z-score was active: 3.98.

Consider CCUACAGUGACCUUUCCCGTT against Apcs, for which the z-score was inactive: -1.22.

GGGAGAGAACGUGUUCUUCTT against P2rx6: the z-score was inactive: -0.477.

Regarding GGAAACCUGGAAACAGUUUTT against Apol7c, the z-score was inactive: 0.377.

Take GUGACAAGAGAAGUCAAAATT against Ear1: the z-score was inactive: 0.67.

With CGGAGCCAAAUACGAAGGGTT against Jph3, the z-score is inactive: -0.548.

In the case of CCUUCGACACCUUACAAGUTT against Ndufa12, the z-score was inactive: -0.282.

Regarding CCCUAAUUUAUUCUCGGCGTT against Septin5, the z-score is inactive: 0.471.

Regarding GCGAGAGAUUCUUUCCCUGTT against Traf6, the z-score is inactive: -1.24.

As to “GGGACUUUUUUUCAAACACTT against 2900026A02Rik”, the z-score is inactive: -0.814.

Consider CCGUCCGAUGAAAAACAGGTT against Prm1, for which the z-score was inactive: -0.128.

For the sequence GGAUUUUCGAUUCUCUUACTT against Glg1, the z-score was active: 2.25.

In the case of GCAGAUUGCAUCGGAAGAATT against BC061237, the z-score was inactive: 0.47.

Consider CGGCAGUCAGCAAAACAAATT against Pnpt1, for which the z-score is inactive: -1.6.

For CUGGUUAGAAAGAUCUUCCTT against Grxcr1, the z-score was inactive: -0.403.

In the case of GGAGCAUUUUGGAUAAGAUTT against Nup88, the z-score is inactive: -1.31.

GGACAUUUAAGUGACUUGUTT against Dtnbp1: the z-score is inactive: 1.15.

In the case of CGUUGGUUAUUAGUUGAUUTT against Luc7l2, the z-score was inactive: -0.379.

Take “GCUCAAUGCUUUCUUGUCATT against 0610010F05Rik”: the z-score was inactive: -0.17.

For the sequence GGAAAUUCUGGCAUAAAUUTT against Cd86, the z-score was inactive: -0.732.

Turning to GGUAACAAAUAAAGGAUACTT against Dgke, the z-score was inactive: -0.874.

CGGGCUGGGAAGUUGUUAGTT against Bcl10: the z-score is inactive: 0.0153.

As for GGUCUAGAGUUACCAUUCATT against Aqp9, the z-score is inactive: -0.954.

For the sequence GCACUUUUUUGCUGCUGAUTT against Olfr1263, the z-score was inactive: 0.112.

Turning to GCGAGAGAUGAAAUGGGUGTT against Tbc1d10c, the z-score was inactive: 1.07.

On to GCAGGUGUAUACUAUGUUATT against G6pc, for which the z-score is inactive: 1.88.

GGGAAGAAGACUGACAAGCTT against Lars: the z-score is active: 2.03.

On to GCAGAAAUACGAAAUCAACTT against Tnnt2, for which the z-score is inactive: 0.046.

For the sequence GGACAAGGAAUACUACGAGTT against Ltbr, the z-score is inactive: 0.0172.

In the case of GGAUCAGCUGUCAUCUGUGTT against Spsb4, the z-score was inactive: -0.303.

With CGCAGUGGACUCAUCUUGATT against Sestd1, the z-score was inactive: -0.65.

For the sequence GGACCAAUUUUUUCAGUUGTT against Rhag, the z-score is inactive: 0.495.

As to GGAGGAGUGCAAGAAGAAGTT against Fahd1, the z-score was inactive: 0.327.

Consider GUUCUAUGUCCGGGAGCCATT against Ndufc1, for which the z-score is inactive: 1.51.

For the sequence GGAUGUACAUUCUACCUAUTT against Bap1, the z-score was inactive: -0.239.

GGAGUUGCCCUCAUCUUCATT against Casp6: the z-score is inactive: -1.59.

As for CCAUGAAGAUAUCCUACACTT against Olfr77, the z-score is inactive: 1.54.

GGCUAAGAGACGAAACACUTT against Rpl37: the z-score is inactive: -0.116.

As to GCCACCACUUAGUUUAACATT against Cpa4, the z-score was inactive: 0.22.

Consider GCCCAAAAGACCUCAUAUUTT against Lef1, for which the z-score was inactive: -0.518.

As for CCUAUUGUGCAAAUGAACCTT against Cd164, the z-score is inactive: -0.591.

As to GCGGAGUCUUUGGCUUAGATT against Lratd2, the z-score is inactive: 1.03.

With CCAUUUUAGACUACAUCCATT against Naa60, the z-score was inactive: 0.873.

For the sequence GAUGCCUGACGAGAUAUUUTT against Scgb3a1, the z-score is inactive: -0.576.

For the sequence GGAUGGAUGACUCCUAUUGTT against Gse1, the z-score is inactive: -1.17.

As for GGUAUGAAACCGUAUAAAUTT against Zfp60, the z-score was inactive: 0.00529.

For GGUACUCAAGGUUCAGACCTT against Tfe3, the z-score is inactive: 0.153.

As for GGAUAUGGAAGAAGUUGUGTT against Olfr1089, the z-score was active: -2.2.

For GGCAGCCCUCAAGUUAAUCTT against Zfp612, the z-score was inactive: -0.552.

Consider GGAGAGGAAAAUCAUCCUGTT against Rims2, for which the z-score was inactive: 0.038.

For the sequence GCGUGACCAGUUCAGUGAATT against Tnfrsf17, the z-score is inactive: 0.755.

Take GCCACCAACUCAGGUAGAATT against Nrip2: the z-score is inactive: 0.343.

For GGUAAGGAAAACAAAUAUGTT against En1, the z-score is active: 2.13.

With CCACUGACAACAAGUUGUUTT against Glra2, the z-score is inactive: -1.58.

With GGAAGAAAGGAAAAAAGCUTT against Gnrhr, the z-score was inactive: -0.408.
